Results deposited as PubChem BioAssay AID1053208 (Peter MacCallum Cancer Centre, 2014)
Aim: 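Synthetic lethal interactions between gene loss and doxorubicin in osteosarcoma cells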 (primary screen). System: mouse osteosarcoma cells, early-passage culture from an engineered mouse model of fibroblastic bone tumour. Knock-down reagent: siRNA pool against mouse genes, 40 nM. Time to read-out: about 120 h (48 h before drug, then 72 h with drug). Challenge: doxorubicin 100 nM for 72 h, roughly 30-40% inhibitory dose. Measured: 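Viability read as ATP luminescence after 72 h of 100 nM doxorubicin or none, duplicate wells averaged, scaled to non-targeting siRNA, then expressed as robust z-scores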. Direction: viability z-score with doxorubicin: higher = more viable cells under doxorubicin; viability z-score without drug: higher = more viable cells with knock-down alone; z-score of drug to no-drug ratio: higher = less drug sensitisation by knock-down. Call rule: 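Called active if knock-down leaves viability unchanged without drug (z within -2 to 2) but lowers it with doxorubicin (z at or under -2)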.
Here is one part, drawn at random, of about 17,000 deposited reagents. 788 of them (4.7%) were called active. 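Calls rest on z-score classes alone; an extra cut-off of viability at most 70% of control was not applied to them.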 Further read-outs or replicates are left out here.

no.	target	combined z-score class	viability z-score with doxorubicin	viability z-score without drug	z-score of drug to no-drug ratio	Outcome
1	Alkbh2	no change with or without drug	-0.67	0.34	-0.79	inactive
2	Wdr36	no change with or without drug	0.11	0.51	-0.11	inactive
3	Thyn1	no change with or without drug	-1.35	0.34	-1.46	inactive
4	Phf19	no change with or without drug	-1.46	-0.51	-1.12	inactive
5	Or51r1	no change with or without drug	-0.45	-0.67	0.11	inactive
6	Krt86	no change with or without drug	-0.67	0.84	-1.12	inactive

A portion of the results above:
no.	target	combined z-score class	viability z-score with doxorubicin	viability z-score without drug	z-score of drug to no-drug ratio	Outcome
4	Phf19	no change with or without drug	-1.46	-0.51	-1.12	inactive
5	Or51r1	no change with or without drug	-0.45	-0.67	0.11	inactive

Further entries follow:
no.	target	combined z-score class	viability z-score with doxorubicin	viability z-score without drug	z-score of drug to no-drug ratio	Outcome
7	Rdh16	no change with or without drug	-0.67	0.17	-0.67	inactive
8	Fbf1	low cell count with doxorubicin only	-2.25	-0.67	-1.91	active
9	Fastkd3	no change with or without drug	-1.35	-0.17	-1.24	inactive
10	Or7a40	no change with or without drug	1.35	0.34	1.24	inactive
11	Unc5a	no change with or without drug	-0.9	-0.51	-0.56	inactive
12	Tnfrsf4	no change with or without drug	0.11	0.17	0.11	inactive
13	Celsr2	no change with or without drug	-0.45	-1.18	0.45	inactive
14	C130021I20Rik	no change with or without drug	0.79	-0.51	1.35	inactive
15	H1f8	no change with or without drug	-0.45	0.51	-0.67	inactive
16	Msantd5l	no change with or without drug	-0.22	-0.51	0.22	inactive
17	Mup5	no change with or without drug	-0.45	-1.52	0.79	inactive
18	Acsm1	no change with or without drug	0	0.51	-0.22	inactive
19	Tm7sf3	no change with or without drug	-0.11	0.17	-0.11	inactive
20	Slc4a2	low cell count with doxorubicin only	-2.25	0.34	-2.47	active
